Consider 2 molecules from publication PMC6170617.

The target of this test is T1, osteocalcin (mouse (endogenous in striatum)) (UniProt P86546).
T1 sequence: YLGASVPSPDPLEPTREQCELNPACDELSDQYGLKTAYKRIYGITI
Put plainly: co-IP; mouse striatum homogenised in NP-40 buffer with protease and phosphatase inhibitors; supernatant incubated 2 h at 4°C with anti-OCN antibody on protein G agarose beads, three NP-40 washes; western blot with anti-Gpr158 and anti-GPRC6a antibodies.

No constants are given. Whether binding was seen depends on the method and setting. Binding seen in cells or lysates may run through a third protein. Some binding calls cover weakened binding; strength is not graded here.

B1: GPR158 (receptor, UniProt Q8C419 25-1200)
chain: SLDPPGRPDSPRERTPRGKQHGQQLPRASAPDPSIPWSRSTDGTILAQKLAEEVPVDVASYLYTGDFHQLKRANCSGRYELAGLPGKSPSLASSHPSLHGALDTLTHATNFLNMMLQSNKSREQTVQDDLQWYQALVRSLLEGEPSISRAAITFSTESLSTPAPQVFLQATREESRILLQDLSSSAHHLANATLETEWFHGLRRKWRPHLHRRGSNQGPRGLGHSWRRRDGLGGDRSHVKWSPPYLECENGSYKPGWLVTLSAAFYGLQPNLVPEFRGVMKVDISLQKVDIDQCSSDGWFSGTHKCHLNNSECMPIKGLGFVLGAYQCICKAGFYHPRVFSVNNFQRRGPDHHFSGSTKDVSEETHVCLPCREGCPFCADDRPCFVQEDKYLRLAIISFQALCMLLDFVSMLVVYHFRKAKSIRASGLILLETILFGSLLLYFPVVILYFEPSTFRCILLRWARLLGFATVYGTVTLKLHRVLKVFLSRTAQRIPYMTGGRVMRMLAVIVLVVFWFLVGWTSSMCQNLERDILLVGQGQTSDHLTFNMCLIDRWDYMTAVAEFLFLLWGIYLCYAVRTVPSAFHEPRYMAVAVHNELIITAIFHTIRFVLASRLQPDWMLMLYFAHAHLTVTVTIGLLLIPKFSHSSNNPRDDIATEAYEDELDMGRSGSYLNSSINSAWSEHSLDPEDIRDELKKLYAQLEIYKRKKMITNNPHLQKKRCSKKGLGRSIMRRITEIPETVSRQCSKEDKEGTDHSAAKGTGLVRKNPTESSGNTGRPKEESLKNRVFSLKKSHSTYDHVRDQTVESSSLPMESQEEEATENSTLESLSSKKLTQKLKEDSEAESTESVPLVCKSASAHNLSSEKKPGHPRTSMLQKSLSVIASAKEKTLGLAGKTQTLVMEDRAKSQKPKDRETIRKYSNSDNVETIPNSGHMEEPRKPQKSGIMKQQRVSLPTANPDVSSGITQIKDNFDIGEVCPWEVYDLTPGPMPSEPKAQKHVSIAASEVEQNPASFLKEKSYHKSKATEGLYQANHKSIDKTEVCPWEIHSQSLLEDENRLISKTPVLPGRAREENGSQLYTTNMCAGQYEELPHKVVAPKVENENLNQMGDQEKQTSSSVDIIPGSCNSSNNSHQPLTSRAEVCPWEFEPLEQPNAERSVTLPASSALSANKIPGPQK
For the molecule B1, the binding result is on record as “binds”.

B2: GPRC6A (receptor, UniProt Q8K4Z6 21-928)
chain: CHTPDDFVAITSPGHIMIGGLFAIHEKMLSSDDHPRRPQIQKCAGFEISVFLQTLAMIHSIEMINNSTLLSGVKLGYEIYDTCTEVTAAMAATLRFLSKFNCSRETVVFQCDYSSYMPRVKAVIGAGYSETSIAVSRMLNLQLMPQVSYESTAEILSDKIRFPSFLRTVPSDFYQTKAMAHLIRQSGWNWIGAITTDDDYGRLALNTFAIQAAENNVCIAFKEVLPAFLSDNTIEVRINQTLEKIIAEAQVNVIVVFLRKFHVFNLFTKAIERKISKIWIASDNWSTATKIITIPNVKKLGKVVGFAFRRGNTSSFHSFLQTLHMYPNDNNKPLHEFAMLVSACKYIKDGDLSQCISNYSQATLTYDTTKTIENHLFKRNDFLWHYTEPGLIYSIQLAVFALGHAIRDLCQARDCKKPNAFQPWELLAVLKNVTFTDGRNSFHFDAHGDLNTGYDVVLWKETNGLMTVTKMAEYDLQRDVFITTNQETKHEFRKLKQILSKCSKECSPGQMKKATGSQHSCCYECVSCPENHYSNETDMDHCLLCNNETHWAPVRSTTCFEKEVEYLDWDDSLALLLIALSLLGIAFVLAIGIIFTRNLKTPVVKSSGGLVVCYVMLICHALNFASTGFFIGEPQDFACKTRQTLFGVSFTLCVSCILTKSLKILLAFSFDPKLTMFLKCLYRPVPIVLTCTGIQVVICTLWLVLAAPSVEENISLPRVIILECEEGSALAFGTMLGYITVLAFICFVFAFKGRKLPENYNEAKFLTFGMLIYFIAWITFIPVYTTTFGKYLPAVEIIVILISNYGILCCIFFPKCYIILCKQKTNTKSAFLQMVYNYSAHSVDSLALSHVSLDSTSYDTATTNQSPGNKMTACQNDNHLPAQVLPHTGTAKTIKASKTLRQKRSSSI
As to B2, the binding entry is listed as “binds weakly”.
